Experimental data as given in PubChem BioAssay AID504847 (National Center for Advancing Translational Sciences (NCATS), 2011).
About 3,700 (0.93%) of roughly 400,000 compounds were called active. The shares of active, inactive and inconclusive entries below differ from those in the screen. Calls come from the whole dose curve; as a rule, active = well fitted inhibition curve with a large enough effect; inconclusive = small, poorly fitted or top-dose-only effect, or another doubt; inactive = no such curve, though single readings can be large or run the other way. Potencies of inconclusive entries are doubtful fits and often do not repeat.

By UniProt entry, the sequences of proteins in these tests, tags left out. Where a name states a change or a piece, a line headed by the entry shows the natural chain unless it says otherwise.
UniProt P11473: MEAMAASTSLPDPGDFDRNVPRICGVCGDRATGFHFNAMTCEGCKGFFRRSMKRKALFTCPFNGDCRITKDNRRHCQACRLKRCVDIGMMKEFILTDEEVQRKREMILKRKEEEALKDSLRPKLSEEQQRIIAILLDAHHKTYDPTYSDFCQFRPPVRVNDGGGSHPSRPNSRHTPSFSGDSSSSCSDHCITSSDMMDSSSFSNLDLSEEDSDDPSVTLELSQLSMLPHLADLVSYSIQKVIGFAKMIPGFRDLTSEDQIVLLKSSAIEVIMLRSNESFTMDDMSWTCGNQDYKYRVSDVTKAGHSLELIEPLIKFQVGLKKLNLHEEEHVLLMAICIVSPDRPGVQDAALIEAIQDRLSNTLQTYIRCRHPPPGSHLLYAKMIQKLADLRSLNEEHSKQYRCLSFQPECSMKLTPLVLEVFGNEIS

target: Vitamin D3 receptor (Homo sapiens) (UniProt P11473); assay: Inhibitors of the vitamin D receptor (VDR): qHTS; conditions: VDR-SRC2-3 peptide fluorescence polarization, 2 h; max response, negative = inhibition: stronger effect = lower value
Description: The vitamin D receptor (VDR) is a ligand-activated transcription factor and is partially responsible for the regulation of the endocrine system. This includes the transcriptional regulation of genes involved in the production of the parathyroid hormone (PTH) and the regulation of the blood calcium level. High levels of PHT can cause hypercalcemia in the case of primary and tertiary hyperparathyroidism. The VDR-mediated gene regulation, activated by its ligand 1,25-dihydroxyvitamin D3 (1,25-(OH)2D3), is governed by the recruitment of coactivators. Our hypothesis is that small molecules, with the ability to inhibit the interaction between VDR and certain coactivators, are able to selectively modulate VDR-mediated transcription. Our long term objective is the application these VDR-coactivator inhibitors to study the role of VDR-coactivator binding for specific VDR regulated genes. Ultimately, these molecules can be developed into new treatments for hypercalcemic hyperparathyroidism. No small molecule or non-peptide inhibitors are known for the VDR-coactivator interaction.
In a collaboration between the University of Wisconsin, Milwaukee and the NIH Chemical Genomics Center (NCGC) a HTS-compatible enzymatic assay was developed. The assay uses fluorescence polarization as its read-out to measure the inhibition between VDR and coregulator peptide SRC2-3 exerted by small molecules. This assay was used to screen the NIH Molecular Libraries Small Molecule Repository (MLSMR).
NIH Chemical Genomics Center [NCGC]
NIH Molecular Libraries Probe Centers Network [MLPCN]
Assay Submitter (PI): Alexander Arnold, University of Wilwaukee
Both solutions are kept at 4 deg C and protected from light and dispensed using a Kalypsys dispenser. Then 23nl of compounds and controls are added with Kalypsys pintool. […] Plate is centrifuged at 1000 RPM for 15 seconds to remove any residual bubbles. The plate is then incubate at ambient room temperature for 2 hours.
% is set by controls: 0 for no effect and ±100 for the full control effect; potency is the fitted concentration of half-maximal effect.

Structure (SMILES) | Potency | max response, negative = inhibition
c1ccc(N2CCCC3(CCNCC3)C2)cc1 | inconclusive: 89.1 µM [inhibitor, single point] | 
CN1CCc2c(C#N)c(Cl)nc(Cl)c2C1 |  | inactive: -6.33%
C[C@H]1CC[C@@H]2N(C1)C[C@H]1[C@@H]3C[C@H]4[C@@H](CC(=O)[C@H]5C[C@@H](O)CC[C@@]54C)[C@@H]3CC[C@H]1[C@]2(C)O | inconclusive: 100 µM [inhibitor, partial curve, poor fit] | 
Cc1ccc(/C=C2\C(=O)NC(=O)N(CC3CCCO3)C2=O)s1 (stereo unspecified) | inconclusive: 100 µM [inhibitor, partial curve, poor fit] | 
O=c1oc2ccccc2c(O)c1C(c1ccc([N+](=O)[O-])cc1)c1c(O)c2ccccc2oc1=O | inconclusive: 56.2 µM [inhibitor, partial curve, poor fit] | 
Brc1nc(-c2ccccc2)nc(-c2ccccc2)c1Br | inconclusive: 39.8 µM [inhibitor, single point] | 
CCN(CC)c1ccc(N=Cc2c(O)[nH]c(=O)[nH]c2=O)cc1 | active: 79.4 µM | 
CCN1C[C@@]2(COC)C3[C@@H](OC)[C@H]4[C@@H]1[C@@]3(C1C[C@H]3[C@H](OC(=O)c5ccccc5)C1[C@]4(OC(C)=O)C[C@H]3OC)[C@@H](OC)C[C@H]2O (stereo partly specified) | inconclusive: 63.1 µM [inhibitor, partial curve, poor fit] | 
CCOC(=O)c1sc(/N=C/c2c(O)n(-c3ccccc3)c(=O)[nH]c2=O)c(C#N)c1C | inconclusive: 79.4 µM [inhibitor, partial curve] | 
Cn1c(O)c(/C=C2/C=CC=N2)c(=O)[nH]c1=O |  | inactive: 13.3%
CN1CN=C(N[N+](=O)[O-])N(Cc2ccco2)C1 | inconclusive: 89.1 µM [inhibitor, single point] | 
Cc1ccc(NS(=O)(=O)c2ccc(Cl)c(N=Nc3c(O)[nH]c(=O)[nH]c3=O)c2)cc1Cl | inconclusive: 100 µM [inhibitor, single point] | 
COc1c(C=C2C(=O)NC(=O)NC2=O)c(CCN(C)C(=O)c2ccccc2)cc2c1OCO2 | inconclusive: 79.4 µM [inhibitor, partial curve, poor fit] | 
CCn1c(N)c(C(=O)NC)sc1=S | active: 25.1 µM | 
Cc1cccc(N2C(=O)NC(=O)/C(=C\c3cc(C)n(-c4sc5c(c4C#N)CCCC5)c3C)C2=O)c1C | active: 15.8 µM | 
CCC(C=C[C@@H]1OC(=O)C=C[C@H]1C)=C[C@H](C)CC=CC(C)=C[C@@H](C)C(=O)[C@@H](C)[C@H](O)[C@@H](C)CC(C)=CC(=O)O | active: 1.58 µM | 

No new results follow: two of the compounds above.
Structure (SMILES) | Potency | max response, negative = inhibition
CCN1C[C@@]2(COC)C3[C@@H](OC)[C@H]4[C@@H]1[C@@]3(C1C[C@H]3[C@H](OC(=O)c5ccccc5)C1[C@]4(OC(C)=O)C[C@H]3OC)[C@@H](OC)C[C@H]2O (stereo partly specified) | inconclusive: 63.1 µM [inhibitor, partial curve, poor fit] | 
CCOC(=O)c1sc(/N=C/c2c(O)n(-c3ccccc3)c(=O)[nH]c2=O)c(C#N)c1C | inconclusive: 79.4 µM [inhibitor, partial curve] | 
